Test results as given in PMC2938476.
Changes are numbered by the printed parent chain. Names may count otherwise. No constants are given. Whether binding was seen depends on the method and setting. Binding seen in cells or lysates may run through a third protein. Some entries that bind do so weakly or less than the wild type. Where a sequence is shown, tags or fusion partners need not be part of it.

B1: WTNop58-mCherry (protein, UniProt Q9Y2X3 1-529)
chain: MLVLFETSVGYAIFKVLNEKKLQEVDSLWKEFETPEKANKIVKLKHFEKFQDTAEALAAFTALMEGKINKQLKKVLKKIVKEAHEPLAVADAKLGGVIKEKLNLSCIHSPVVNELMRGIRSQMDGLIPGVEPREMAAMCLGLAHSLSRYRLKFSADKVDTMIVQAISLLDDLDKELNNYIMRCREWYGWHFPELGKIISDNLTYCKCLQKVGDRKNYASAKLSELLPEEVEAEVKAAAEISMGTEVSEEDICNILHLCTQVIEISEYRTQLYEYLQNRMMAIAPNVTVMVGELVGARLIAHAGSLLNLAKHAASTVQILGAEKALFRALKSRRDTPKYGLIYHASLVGQTSPKHKGKISRMLAAKTVLAIRYDAFGEDSSSAMGVENRAKLEARLRTLEDRGIRKISGTGKALAKTEKYEHKSEVKTYDPSGDSTLPTCSKKRKIEQVDKEDEITEKKAKKAKIKVKVEEEEEEKVAEEEETSVKKKKKRGKKKHIKEEPLSEEEPCTSTAIASPEKKKKKKKKRENED
B2: 2mutNop58-GFP (K467R, K497R) (protein, UniProt Q9Y2X3 1-529)
chain: B1 chain with K467R, K497R
B3: fibrillarin (protein, UniProt P22087 1-321)
chain: MKPGFSPRGGGFGGRGGFGDRGGRGGRGGFGGGRGRGGGFRGRGRGGGGGGGGGGGGGRGGGGFHSGGNRGRGRGGKRGNQSGKNVMVEPHRHEGVFICRGKEDALVTKNLVPGESVYGEKRVSISEGDDKIEYRAWNPFRSKLAAAILGGVDQIHIKPGAKVLYLGAASGTTVSHVSDIVGPDGLVYAVEFSHRSGRDLINLAKKRTNIIPVIEDARHPHKYRMLIAMVDVIFADVAQPDQTRIVALNAHTFLRNGGHFVISIKANCIDSTASAEAVFASEVKKMQQENMKPQEQLTLEPYERDHAVVVGVYRPPPKVKN

What was measured:
[1] = molecular target: T1, fibrillarin (human (endogenous in U2OS)) (UniProt P22087); experiment: co-IP; IP of endogenous fibrillarin from cells transiently cotransfected with WTNop58-mCherry and/or 2mutNop58-GFP (Figure S5B)
T1 sequence: B3 chain

WTNop58-GFP (human) = molecular target: T2, WTNop58-GFP (human) (UniProt Q9Y2X3); experiment: co-IP; anti-GFP IP (GFP-TrapA beads, cell extract in HNTG buffer, 2 hr, 4°C) from U2OS cell nuclei stably expressing WTNop58-GFP or 2mutNop58-GFP; quantitative western blotting for fibrillarin (Figure S5C)
T2 sequence: B1 chain

Row | Binder | binding [1] | binding (WTNop58-GFP (human))
1 | B1 | binds | 
2 | B2 | binds | 
3 | B3 |  | binds
